The source of these data is publication PMC8953689.

Sequences of proteins named here, by UniProt entry; tags and fusion partners are left off.
UniProt O00161: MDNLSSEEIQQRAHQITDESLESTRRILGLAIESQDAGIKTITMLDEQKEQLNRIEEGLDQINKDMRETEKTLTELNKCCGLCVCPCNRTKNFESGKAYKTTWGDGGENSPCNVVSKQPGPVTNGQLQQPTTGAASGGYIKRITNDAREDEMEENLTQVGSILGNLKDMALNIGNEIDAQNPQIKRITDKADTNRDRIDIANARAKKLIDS

Experiment [1] deals with T1, FLAG-tagged PLIN5 (murine perilipin 5, wild type), stably expressed in AC16 cardiomyocytes (murine) (UniProt Q8BVZ1).
T1 sequence: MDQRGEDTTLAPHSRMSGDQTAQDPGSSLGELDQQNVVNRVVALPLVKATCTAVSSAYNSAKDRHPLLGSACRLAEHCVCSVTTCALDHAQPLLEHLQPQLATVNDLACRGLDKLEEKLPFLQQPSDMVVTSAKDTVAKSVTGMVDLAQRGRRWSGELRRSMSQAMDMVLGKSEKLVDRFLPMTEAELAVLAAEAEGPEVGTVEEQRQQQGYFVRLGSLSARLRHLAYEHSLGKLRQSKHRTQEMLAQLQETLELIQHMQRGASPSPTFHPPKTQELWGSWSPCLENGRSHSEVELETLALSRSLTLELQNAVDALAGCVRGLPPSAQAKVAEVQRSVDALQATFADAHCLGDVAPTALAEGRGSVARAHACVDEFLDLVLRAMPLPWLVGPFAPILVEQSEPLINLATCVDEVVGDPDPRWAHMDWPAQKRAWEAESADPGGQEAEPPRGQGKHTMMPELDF
The experiment can be described thus: affinity purification with mass spectrometry; AC16 cardiomyocytes stably expressing FLAG-tagged PLIN5, PLIN5(Δ461–463) or β-Gal; FLAG IP in triplicates; copurifying proteins identified by diaPASEF MS, label-free quantification.

Experiment [2] addresses T2, FLAG-tagged PLIN5(Δ461–463), stably expressed in AC16 cardiomyocytes (murine) (UniProt Q8BVZ1).
T2 sequence: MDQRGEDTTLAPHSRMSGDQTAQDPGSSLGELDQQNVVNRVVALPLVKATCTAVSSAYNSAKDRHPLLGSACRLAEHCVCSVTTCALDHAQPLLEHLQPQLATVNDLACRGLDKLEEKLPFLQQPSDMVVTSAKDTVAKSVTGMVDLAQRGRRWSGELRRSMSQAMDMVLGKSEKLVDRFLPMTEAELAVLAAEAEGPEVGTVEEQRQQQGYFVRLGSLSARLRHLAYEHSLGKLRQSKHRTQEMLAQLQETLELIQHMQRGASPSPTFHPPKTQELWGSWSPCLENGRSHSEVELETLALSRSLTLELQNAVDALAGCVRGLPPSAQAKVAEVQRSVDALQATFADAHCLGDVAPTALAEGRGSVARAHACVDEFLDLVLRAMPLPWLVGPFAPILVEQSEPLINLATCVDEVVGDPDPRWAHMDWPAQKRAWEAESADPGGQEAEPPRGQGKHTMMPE
The description is as above.

Results are given in words; binding and its absence hold for the method and conditions named. Binding seen in cells or lysates may run through a third protein. Here binding means that the protein was enriched with, or labelled near, the bait; the list need not be complete. Sequences can lack the tags named with a protein.

With “synaptosomal-associated protein 23 (from UniProt O00161 1-211)”, the binding result in experiment [1] and in experiment [2] was “binds” each time.

B1: adipose triglyceride lipase (ATGL), endogenous in AC16 cells (enzyme, UniProt Q96AD5 1-504)
chain: MFPREKTWNISFAGCGFLGVYYVGVASCLREHAPFLVANATHIYGASAGALTATALVTGVCLGEAGAKFIEVSKEARKRFLGPLHPSFNLVKIIRSFLLKVLPADSHEHASGRLGISLTRVSDGENVIISHFNSKDELIQANVCSGFIPVYCGLIPPSLQGVRYVDGGISDNLPLYELKNTITVSPFSGESDICPQDSSTNIHELRVTNTSIQFNLRNLYRLSKALFPPEPLVLREMCKQGYRDGLRFLQRNGLLNRPNPLLALPPARPHGPEDKDQAVESAQAEDYSQLPGEDHILEHLPARLNEALLEACVEPTDLLTTLSNMLPVRLATAMMVPYTLPLESALSFTIRLLEWLPDVPEDIRWMKEQTGSICQYLVMRAKRKLGRHLPSRLPEQVELRRVQSLPSVPLSCAAYREALPGWMRNNLSLGDALAKWEECQRQLLLGLFCTNVAFPPEALRMRAPADPAPAPADPASPQHQLAGPAPLLSTPAPEARPVIGALGL
As to B1, the binding result in experiment [1] and in experiment [2] was “binds” each time.
